Laboratory results: US20260167829A1, “USES OF DIAZIRINES” (Nanyang Technological University, priority 2022, published 2026)

Columns and labels:
[1] = Photorheology of PEGDA575 in PBS with 1% photo-initiator; format: physicochemical; conditions: for G′ value: stable or final value
[2] = Photo-DSC of PEGDA575 with 1% photo-initiator; format: physicochemical; conditions: 365 nm, 25° C.
[3] = 20% PEGDA575 in PBS, 1% initiator, 365 nm
[4] = 50% PEGDA575 in PBS, 1% initiator, 365 nm

Row | SMILES | G′ value [1, 3] | G′ value [1, 4] | heat flow ([2]; 100% PEGDA575, 1% initiator) [mW] | curing activity on the rheometer ([1]; 10% PEGDA575 in PBS) | G′ peak ([1]; 20% PEGDA575 in PBS, 1% initiator, 365 nm, peak before decrease) | heat flow ([2]; 20% PEGDA575 in PBS, 1% initiator)
1 | O=C(O)c1ccc(C2(C(F)(F)F)N=N2)cc1 [DzCOOH, 4-[3-(Trifluoromethyl)-3H-diazirin-3-yl]benzoic acid] | 10^5 Pa | 10^4 Pa | ~75 |  |  | 
2 | OCc1ccc(C2(C(F)(F)F)N=N2)cc1 [DzOH, 4-[3-(Trifluoromethyl)-3H-diazirin-3-yl]benzyl alcohol] |  | ~10^6 Pa | ~45 | no curing activity observed |  | 
3 | Cc1cc(C)c(C(=O)P(=O)(c2ccccc2)c2ccccc2)c(C)c1 [TPO, Diphenyl(2,4,6-trimethylbenzoyl)phosphine oxide, reference compound] | 10^4 Pa | 10^4 Pa | 130 |  | 10^5 Pa | around 18 mW
